From paper PMC11586402

Target: T1, GST-Zfp260 (mouse) (UniProt Q62513)
T1 sequence: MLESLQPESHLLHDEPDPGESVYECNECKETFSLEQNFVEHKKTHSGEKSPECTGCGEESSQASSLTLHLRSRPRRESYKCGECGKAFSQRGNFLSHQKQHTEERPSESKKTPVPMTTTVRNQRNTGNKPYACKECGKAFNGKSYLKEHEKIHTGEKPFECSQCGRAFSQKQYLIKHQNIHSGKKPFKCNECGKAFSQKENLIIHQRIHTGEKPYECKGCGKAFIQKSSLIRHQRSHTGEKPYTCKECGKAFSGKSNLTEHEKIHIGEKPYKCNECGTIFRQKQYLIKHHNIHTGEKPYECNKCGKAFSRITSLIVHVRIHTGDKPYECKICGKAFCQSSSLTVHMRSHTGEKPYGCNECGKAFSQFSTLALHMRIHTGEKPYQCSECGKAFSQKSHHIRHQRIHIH
Test: affinity purification with mass spectrometry; GST-Zfp260 captured on glutathione magnetic agarose beads, incubated with whole cell lysates of PSCs at 4 °C overnight; eluate silver stained and analysed by mass spectrometry; GST alone as control; only the target purified

binding: binds
Substance: Prkca (from UniProt P20444 1-672) (enzyme)

These are yes or no findings as the source states them, for the method shown. Binding seen in cells or lysates may run through a third protein. These calls come from enrichment with a bait or labelling near it, and not all partners need be listed. Tags and fused reporters may be left off the sequences shown.
